This assay concerns the target T1, Recombinant Human IL3RA protein conjugated to APC (Creative BioMart, CAT #IL3RA-3248HA) (human) (UniProt P26951).
T1 sequence (conjugated to APC, looked up): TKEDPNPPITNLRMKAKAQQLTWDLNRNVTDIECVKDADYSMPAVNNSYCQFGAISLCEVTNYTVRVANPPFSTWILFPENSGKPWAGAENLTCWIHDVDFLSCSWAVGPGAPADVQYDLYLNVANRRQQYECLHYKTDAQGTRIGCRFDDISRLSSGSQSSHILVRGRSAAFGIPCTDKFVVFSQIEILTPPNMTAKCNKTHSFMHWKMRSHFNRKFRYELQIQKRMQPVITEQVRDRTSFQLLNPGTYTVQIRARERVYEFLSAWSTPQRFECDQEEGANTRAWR
Kind of assay: flow cytometry, recombinant CD123 protein binding to CAR T cells.

No constants are given. Whether binding was seen depends on the method and setting. Some binding calls cover weakened binding; strength is not graded here.

B1: GRP78-GPcPcPc-CD123-CAR (other)
chain: CTVALPGGYVRVCEFAGSGGSGGSGGSPVPSTPPTNSSSTPPTPSPSPVPSTPPTNSSSTPPTPSPSPVPSTPPTNSSSTPPTPSPSASAAAQVQLQQPGAELVRPGASVKLSCKASGYTFTSYWMNWVKQRPDQGLEWIGRIDPYDSETHYNQKFKDKAILTVDKSSSTAYMQLSSLTSEDSAVYYCARGNWDDYWGQGTTLTVSSGGGGSGGGGSGGGGSDVQITQSPSYLAASPGETITINCRASKSISKDLAWYQEKPGKTNKLLIYSGSTLQSGIPSRFSGSGSGTDFTLTISSLEPEDFAMYYCQQHNKYPYTFGGGTKLEIKSIEVMYPPPYLDNEKSNGTIIHVKGKHLCPSPLFPGPSKPFWVLVVVGGVLACYSLLVTVAFIIFWVRSKRSRLLHSDYMNMTPRRPGPTRKHYQPYAPPRDFAAYRSRVKFSRSADAPAYQQGQNQLYNELNLGRREEYDVLDKRRGRDPEMGGKPRRKNPQEGLYNELQKDKMAEAYSEIGMKGERRRGKGHDGLYQGLSTATKDTYDALHMQALPPR
In the case of B1, the binding result is recorded as “binds”.

B2: GRP78-G4S3-CD123-CAR (other)
chain: CTVALPGGYVRVCEFGGGGSGGGGSGGGGSAAAQVQLQQPGAELVRPGASVKLSCKASGYTFTSYWMNWVKQRPDQGLEWIGRIDPYDSETHYNQKFKDKAILTVDKSSSTAYMQLSSLTSEDSAVYYCARGNWDDYWGQGTTLTVSSGGGGSGGGGSGGGGSDVQITQSPSYLAASPGETITINCRASKSISKDLAWYQEKPGKTNKLLIYSGSTLQSGIPSRFSGSGSGTDFTLTISSLEPEDFAMYYCQQHNKYPYTFGGGTKLEIKSIEVMYPPPYLDNEKSNGTIIHVKGKHLCPSPLFPGPSKPFWVLVVVGGVLACYSLLVTVAFIIFWVRSKRSRLLHSDYMNMTPRRPGPTRKHYQPYAPPRDFAAYRSRVKFSRSADAPAYQQGQNQLYNELNLGRREEYDVLDKRRGRDPEMGGKPRRKNPQEGLYNELQKDKMAEAYSEIGMKGERRRGKGHDGLYQGLSTATKDTYDALHMQALPPR
notes: Residues from 510 on (spacer RSGVDSG, T2A, tCD19) are also left out; also called 78.(G4S)3.123; G4S2
In the case of B2, the binding result is recorded as “binds”.

For the origin of these results see patent US20250195658A1 (ST JUDE CHILDREN S RESEARCH HOSPITAL, published 2025).
